Reference: the supplement of paper PMC12819154, “High-throughput peptide-centric local stability assay extends protein–ligand identification to membrane proteins, tissues and bacteria” (Nature Structural & Molecular Biology, 2025)
Some of the results follow. Small differences around the control level are noise.

Amino acid sequences for entries named in this document (tags omitted). A change or cut given only in a name is not applied to a line headed by its entry.
UniProt Q3TQF0: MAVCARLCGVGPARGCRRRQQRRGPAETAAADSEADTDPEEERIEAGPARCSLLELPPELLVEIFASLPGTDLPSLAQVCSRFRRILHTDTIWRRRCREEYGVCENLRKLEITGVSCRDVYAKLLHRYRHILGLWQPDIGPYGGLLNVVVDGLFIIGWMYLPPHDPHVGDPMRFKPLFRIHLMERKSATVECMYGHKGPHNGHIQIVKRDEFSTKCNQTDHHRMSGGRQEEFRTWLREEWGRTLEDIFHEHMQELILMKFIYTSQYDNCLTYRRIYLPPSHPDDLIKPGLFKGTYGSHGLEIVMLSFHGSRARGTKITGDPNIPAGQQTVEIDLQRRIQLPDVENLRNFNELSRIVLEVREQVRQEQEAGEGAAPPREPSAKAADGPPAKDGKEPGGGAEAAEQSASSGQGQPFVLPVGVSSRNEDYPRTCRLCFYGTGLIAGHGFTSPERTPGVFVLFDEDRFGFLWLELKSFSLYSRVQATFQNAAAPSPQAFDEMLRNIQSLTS
UniProt Q14C51, whole entry: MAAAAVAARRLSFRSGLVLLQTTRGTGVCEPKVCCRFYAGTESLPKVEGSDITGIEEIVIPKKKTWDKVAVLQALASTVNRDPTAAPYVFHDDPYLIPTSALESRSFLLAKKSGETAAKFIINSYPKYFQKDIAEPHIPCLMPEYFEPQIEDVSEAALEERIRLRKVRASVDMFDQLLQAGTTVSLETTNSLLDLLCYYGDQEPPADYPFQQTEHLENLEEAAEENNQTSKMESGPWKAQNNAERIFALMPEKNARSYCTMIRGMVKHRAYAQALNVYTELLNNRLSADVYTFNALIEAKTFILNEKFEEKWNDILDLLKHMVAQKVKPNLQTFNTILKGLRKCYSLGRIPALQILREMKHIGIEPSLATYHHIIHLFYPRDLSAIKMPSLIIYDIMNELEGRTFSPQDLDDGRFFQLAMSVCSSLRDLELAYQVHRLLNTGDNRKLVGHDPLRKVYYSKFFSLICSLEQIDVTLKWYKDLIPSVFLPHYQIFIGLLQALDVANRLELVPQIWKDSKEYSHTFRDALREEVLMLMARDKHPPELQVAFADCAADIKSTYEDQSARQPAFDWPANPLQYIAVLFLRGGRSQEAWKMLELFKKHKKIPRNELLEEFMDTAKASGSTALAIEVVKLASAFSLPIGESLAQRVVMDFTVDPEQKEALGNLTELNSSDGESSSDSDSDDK
UniProt Q2PZL6: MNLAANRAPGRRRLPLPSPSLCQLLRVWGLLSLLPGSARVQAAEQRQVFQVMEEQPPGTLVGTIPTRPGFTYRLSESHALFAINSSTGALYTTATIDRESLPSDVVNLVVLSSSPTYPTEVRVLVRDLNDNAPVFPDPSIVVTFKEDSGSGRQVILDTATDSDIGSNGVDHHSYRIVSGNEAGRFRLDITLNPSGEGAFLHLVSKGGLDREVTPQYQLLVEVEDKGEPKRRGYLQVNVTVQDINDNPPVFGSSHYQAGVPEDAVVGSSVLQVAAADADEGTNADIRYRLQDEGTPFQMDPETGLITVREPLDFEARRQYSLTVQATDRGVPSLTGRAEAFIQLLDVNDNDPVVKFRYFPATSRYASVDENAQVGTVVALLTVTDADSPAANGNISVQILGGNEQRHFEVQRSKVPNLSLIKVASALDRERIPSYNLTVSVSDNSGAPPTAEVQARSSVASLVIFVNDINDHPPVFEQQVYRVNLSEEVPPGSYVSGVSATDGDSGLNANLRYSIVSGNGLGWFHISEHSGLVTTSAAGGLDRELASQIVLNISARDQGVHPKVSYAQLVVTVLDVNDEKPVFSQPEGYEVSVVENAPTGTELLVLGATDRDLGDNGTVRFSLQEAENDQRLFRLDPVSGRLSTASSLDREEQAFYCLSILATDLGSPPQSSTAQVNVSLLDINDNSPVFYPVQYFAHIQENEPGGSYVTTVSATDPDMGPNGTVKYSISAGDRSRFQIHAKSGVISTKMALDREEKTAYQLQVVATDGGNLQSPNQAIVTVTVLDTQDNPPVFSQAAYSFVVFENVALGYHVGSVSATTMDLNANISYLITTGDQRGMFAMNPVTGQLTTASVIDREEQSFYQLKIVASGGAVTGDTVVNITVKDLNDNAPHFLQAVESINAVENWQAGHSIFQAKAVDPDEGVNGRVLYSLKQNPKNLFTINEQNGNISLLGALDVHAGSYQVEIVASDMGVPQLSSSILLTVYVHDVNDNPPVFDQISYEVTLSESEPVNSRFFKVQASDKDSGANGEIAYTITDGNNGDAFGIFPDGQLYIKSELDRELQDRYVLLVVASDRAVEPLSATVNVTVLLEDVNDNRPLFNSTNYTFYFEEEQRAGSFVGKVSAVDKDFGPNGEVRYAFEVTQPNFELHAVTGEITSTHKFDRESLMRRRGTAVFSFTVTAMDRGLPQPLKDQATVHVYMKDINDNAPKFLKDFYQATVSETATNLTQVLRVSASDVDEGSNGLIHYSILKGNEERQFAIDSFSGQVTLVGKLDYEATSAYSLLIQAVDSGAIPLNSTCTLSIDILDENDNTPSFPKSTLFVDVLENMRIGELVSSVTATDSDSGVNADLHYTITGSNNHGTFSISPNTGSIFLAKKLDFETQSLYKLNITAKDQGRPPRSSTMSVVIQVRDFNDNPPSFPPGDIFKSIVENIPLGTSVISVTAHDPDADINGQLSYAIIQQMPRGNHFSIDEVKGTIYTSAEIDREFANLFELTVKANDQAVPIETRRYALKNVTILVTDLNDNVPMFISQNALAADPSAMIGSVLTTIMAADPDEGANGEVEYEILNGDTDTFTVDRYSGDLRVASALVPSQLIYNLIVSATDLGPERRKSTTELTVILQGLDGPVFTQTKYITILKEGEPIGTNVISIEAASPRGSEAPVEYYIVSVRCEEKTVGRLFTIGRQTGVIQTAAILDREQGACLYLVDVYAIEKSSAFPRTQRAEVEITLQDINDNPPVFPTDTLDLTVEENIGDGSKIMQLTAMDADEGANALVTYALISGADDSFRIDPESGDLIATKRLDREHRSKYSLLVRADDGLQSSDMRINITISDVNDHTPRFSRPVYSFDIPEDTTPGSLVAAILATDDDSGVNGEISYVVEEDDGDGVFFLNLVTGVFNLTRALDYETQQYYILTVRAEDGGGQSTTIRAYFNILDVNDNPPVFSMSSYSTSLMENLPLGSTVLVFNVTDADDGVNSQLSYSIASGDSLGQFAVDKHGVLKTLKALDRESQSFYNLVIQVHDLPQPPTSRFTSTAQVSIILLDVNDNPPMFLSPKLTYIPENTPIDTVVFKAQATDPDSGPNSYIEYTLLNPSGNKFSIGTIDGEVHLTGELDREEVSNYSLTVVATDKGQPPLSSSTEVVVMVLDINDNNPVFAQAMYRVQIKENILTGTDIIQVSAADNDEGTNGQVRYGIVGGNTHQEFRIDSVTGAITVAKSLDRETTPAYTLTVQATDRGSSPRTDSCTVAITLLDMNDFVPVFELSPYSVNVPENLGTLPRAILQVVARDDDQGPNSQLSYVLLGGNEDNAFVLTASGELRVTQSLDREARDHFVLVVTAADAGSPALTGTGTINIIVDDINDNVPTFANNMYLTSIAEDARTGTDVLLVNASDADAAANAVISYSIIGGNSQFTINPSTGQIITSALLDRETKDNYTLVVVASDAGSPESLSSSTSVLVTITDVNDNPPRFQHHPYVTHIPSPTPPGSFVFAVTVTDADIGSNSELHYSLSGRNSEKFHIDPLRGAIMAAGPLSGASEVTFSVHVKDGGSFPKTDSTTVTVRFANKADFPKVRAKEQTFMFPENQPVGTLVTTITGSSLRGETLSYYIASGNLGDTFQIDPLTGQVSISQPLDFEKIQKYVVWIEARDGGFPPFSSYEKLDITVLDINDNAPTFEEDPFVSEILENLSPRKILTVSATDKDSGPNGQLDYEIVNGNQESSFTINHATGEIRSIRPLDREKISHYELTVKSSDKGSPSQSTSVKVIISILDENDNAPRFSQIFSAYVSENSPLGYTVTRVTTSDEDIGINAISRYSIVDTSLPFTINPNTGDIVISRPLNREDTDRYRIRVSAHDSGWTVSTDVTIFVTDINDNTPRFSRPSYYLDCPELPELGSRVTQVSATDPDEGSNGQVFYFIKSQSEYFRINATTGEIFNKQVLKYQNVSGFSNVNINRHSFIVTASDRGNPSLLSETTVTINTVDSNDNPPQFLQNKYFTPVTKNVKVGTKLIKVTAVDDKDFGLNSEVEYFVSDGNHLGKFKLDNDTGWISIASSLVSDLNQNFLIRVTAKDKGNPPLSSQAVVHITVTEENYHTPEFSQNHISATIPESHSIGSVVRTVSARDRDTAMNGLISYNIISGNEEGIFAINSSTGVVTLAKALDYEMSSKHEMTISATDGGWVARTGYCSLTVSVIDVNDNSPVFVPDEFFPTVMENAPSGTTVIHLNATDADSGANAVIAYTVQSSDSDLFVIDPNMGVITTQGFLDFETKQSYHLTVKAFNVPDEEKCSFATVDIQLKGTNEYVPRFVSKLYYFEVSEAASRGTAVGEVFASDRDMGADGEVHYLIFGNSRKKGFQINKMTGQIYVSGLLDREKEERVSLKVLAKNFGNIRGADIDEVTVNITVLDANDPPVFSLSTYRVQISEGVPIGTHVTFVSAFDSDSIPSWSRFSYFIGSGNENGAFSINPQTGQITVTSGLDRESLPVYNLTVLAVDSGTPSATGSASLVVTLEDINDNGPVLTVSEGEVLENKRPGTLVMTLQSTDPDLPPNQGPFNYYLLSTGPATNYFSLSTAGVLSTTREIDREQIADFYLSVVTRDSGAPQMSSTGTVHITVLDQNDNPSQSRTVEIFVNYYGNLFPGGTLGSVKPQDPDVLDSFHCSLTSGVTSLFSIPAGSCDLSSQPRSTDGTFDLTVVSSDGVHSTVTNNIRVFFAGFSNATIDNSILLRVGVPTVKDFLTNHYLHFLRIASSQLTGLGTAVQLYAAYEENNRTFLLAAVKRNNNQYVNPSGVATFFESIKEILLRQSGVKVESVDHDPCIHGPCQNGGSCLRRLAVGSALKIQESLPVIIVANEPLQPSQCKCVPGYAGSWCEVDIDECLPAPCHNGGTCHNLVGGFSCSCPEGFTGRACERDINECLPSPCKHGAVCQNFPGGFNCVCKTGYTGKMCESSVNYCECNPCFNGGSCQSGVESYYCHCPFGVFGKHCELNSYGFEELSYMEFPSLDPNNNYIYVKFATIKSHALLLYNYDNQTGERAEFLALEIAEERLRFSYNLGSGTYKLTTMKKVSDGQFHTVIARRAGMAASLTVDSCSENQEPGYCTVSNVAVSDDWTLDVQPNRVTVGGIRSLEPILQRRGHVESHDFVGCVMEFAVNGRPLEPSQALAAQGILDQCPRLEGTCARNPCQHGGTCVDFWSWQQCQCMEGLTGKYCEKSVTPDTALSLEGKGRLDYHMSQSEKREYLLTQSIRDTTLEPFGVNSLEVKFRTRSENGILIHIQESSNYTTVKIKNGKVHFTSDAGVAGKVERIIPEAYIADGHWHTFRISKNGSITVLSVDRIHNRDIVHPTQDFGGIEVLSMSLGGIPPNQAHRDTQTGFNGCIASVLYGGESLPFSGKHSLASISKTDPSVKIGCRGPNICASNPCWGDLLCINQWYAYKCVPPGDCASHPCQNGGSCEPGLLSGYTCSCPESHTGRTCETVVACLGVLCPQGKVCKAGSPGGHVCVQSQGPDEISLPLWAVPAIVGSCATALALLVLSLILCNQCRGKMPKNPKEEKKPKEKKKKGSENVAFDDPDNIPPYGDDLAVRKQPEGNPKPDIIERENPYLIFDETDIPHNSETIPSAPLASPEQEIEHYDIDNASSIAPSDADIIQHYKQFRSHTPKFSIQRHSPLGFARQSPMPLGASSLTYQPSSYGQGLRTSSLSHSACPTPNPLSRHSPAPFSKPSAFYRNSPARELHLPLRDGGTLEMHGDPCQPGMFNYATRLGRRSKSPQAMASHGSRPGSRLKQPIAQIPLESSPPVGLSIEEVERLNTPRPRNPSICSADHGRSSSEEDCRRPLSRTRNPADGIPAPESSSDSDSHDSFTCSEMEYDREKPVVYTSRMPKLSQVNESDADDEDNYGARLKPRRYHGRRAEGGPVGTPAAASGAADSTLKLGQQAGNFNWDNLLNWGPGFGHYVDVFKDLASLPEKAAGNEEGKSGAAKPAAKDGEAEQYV
UniProt Q3TDE8: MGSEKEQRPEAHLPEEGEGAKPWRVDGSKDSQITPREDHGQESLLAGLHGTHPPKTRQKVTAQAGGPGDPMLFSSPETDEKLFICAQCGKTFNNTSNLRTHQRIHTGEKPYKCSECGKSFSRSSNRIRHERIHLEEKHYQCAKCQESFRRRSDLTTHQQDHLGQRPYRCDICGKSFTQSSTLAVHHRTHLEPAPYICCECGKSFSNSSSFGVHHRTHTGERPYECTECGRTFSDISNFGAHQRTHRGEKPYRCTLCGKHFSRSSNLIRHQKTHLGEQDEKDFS

These targets were tested with CN[C@@H]1C[C@H]2O[C@@](C)([C@@H]1OC)n1c3ccccc3c3c4c(c5c6ccccc6n2c5c31)C(=O)NC4 [staurosporine] (assay: log2 fold change of tryptic peptide abundance, ligand vs vehicle (limited proteolysis) (log2 ratio); higher = more trypsin-susceptible (destabilized)). Conditions: ligand concentration: 20 uM; sample: mouse liver crude lysate; replicate design: treated separately.
Target “UniProt Q3TQF0 (peptide sequence: RILHTDTIWR, peptide start residue: 85)” has a log2 fold change of 0.398. Target “UniProt Q3TBD2 (peptide sequence: CLETLAIQCGHKK, peptide start residue: 736)” has a log2 fold change of 0.474. “UniProt Q14C51 (peptide sequence: MLELFKK, peptide start residue: 595)” showed a log2 fold change of 0.123. “UniProt Q149F1 (peptide sequence: DLVAEHQAK, peptide start residue: 427)” gave a log2 fold change of 0.113. “UniProt Q3TUH1 (peptide sequence: KSVIYSSR, peptide start residue: 316)” gave a log2 fold change of -0.813. For “UniProt Q2VLH6 (peptide sequence: GEVLIHQVQYQEMDSK, peptide start residue: 1082)”, the log2 fold change was -0.113. “UniProt Q3TC46 (peptide sequence: YLLSLEEERPALMDER, peptide start residue: 543)” gave a log2 fold change of 0.364. Work on “UniProt Q2PZL6 (peptide sequence: AVDPDEGVNGR, peptide start residue: 917)” yielded a log2 fold change of 0.222. Work on “UniProt Q1HFZ0 (peptide sequence: EILHCLK, peptide start residue: 89)” yielded a log2 fold change of 0.182. Target “UniProt Q3TDE8 (peptide sequence: EQRPEAHLPEEGEGAKPWR, peptide start residue: 6)” has a log2 fold change of 0.302. “UniProt Q0VBL3 (peptide sequence: DRYNSDNDR, peptide start residue: 682)” gave a log2 fold change of -0.474.
